Reference: PubChem BioAssay AID2685 (National Center for Advancing Translational Sciences (NCATS), 2010)
The list shows a part of the results. These are further read-outs of the screen, such as a control signal, another cell line or another target. No call is given for them. Compounds called inactive in the main read-out are mostly missing here. The note in brackets gives the kind of curve behind each potency; many fits are weak.

Experiment: qHTS Assay for Lipid Storage Modulators in Drosophila S3 Cells;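 on cell number change: cells counted by Cell Tracker Red CMTPX staining in the red channel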
Conditions: BODIPY lipid droplet fluorescence, 18-24 h; for cell number change: measured here: cell count max response, cells fed with added oleic acid
Outline: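 Laser-scanning cytometry quantifies lipid droplet accumulation (500–530 nm total intensity; droplet/cell object ratio) in oleic acid-fed (400 uM added) Drosophila S3 cells treated with a concentration series. 20 uM Triacsin C defined 100% inhibition.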

[1] = measured here: cell number channel AC50, cells fed with added oleic acid
[2] = measured here: lipid fluorescence (Fed channel) AC50, cells fed with added oleic acid

CC(Sc1nncn1-c1ccccc1)C(=O)Nc1cccc([N+](=O)[O-])c1 (centres undefined)
cell number change: 127% | AC50 [1]: 0.411 µM [rising, single point]

CSc1ccc(S(=O)(=O)N2c3ccccc3CC2C)cc1 (centres undefined)
cell number change: -33.4% | AC50 [1]: 29.1 µM [falling, single point]

COc1ccc2c(c1)c1ncnc(N3CCN(Cc4ccc5c(c4)OCO5)CC3)c1n2C
AC50 [2]: 0.116 µM [rising, full curve]

c1ccc(-n2nnnc2Oc2ccc(-n3ccnc3)cc2)cc1
AC50 [1]: 0.103 µM [rising, full curve, poor fit]

NC(=O)c1nsc(C(=O)N(CC(=O)NC2CCCC2)c2ccc(F)c(Cl)c2)c1N
AC50 [2]: 0.259 µM [falling, full curve]

CCC1CN(C(=O)N2CCC(C(=O)NCc3ccccc3C)CC2)c2ccccc2O1 (centres undefined)
AC50 [2]: 2.91 µM [falling, full curve]

COc1ccc(/C=C/C(=O)N2CCN(S(=O)(=O)/C=C/c3ccccc3)CC2)cc1OC
cell number change: 82.3% | AC50 [1]: 29.1 µM [rising, single point] | AC50 [2]: 29.1 µM [rising, single point]

COc1nsnc1N1CCOCC1
cell number change: 20.6% | AC50 [1]: 0.103 µM [rising, full curve, poor fit] | AC50 [2]: 0.146 µM [rising, full curve, poor fit]

O=C(c1ccccc1)N(C(=O)c1ccccc1)c1ncnc2c1C(c1ccccc1)c1c(ccc3ccccc13)O2 (centres undefined)
cell number change: -20.6% | AC50 [2]: 0.731 µM [falling, full curve]

CC(C)OCCCNc1ncnc2c1[nH]c1ccccc12
cell number change: 43.2% | AC50 [1]: 1.16 µM [rising, partial curve, poor fit] | AC50 [2]: 0.651 µM [rising, partial curve, poor fit]

CC(C)Cn1c(-c2ccc(C#N)cc2)nc2c1c(=O)[nH]c(=O)n2CC(C)C
AC50 [1]: 2.91 µM [rising, partial curve]

Nc1nc(Nc2ccccc2)nc(NC2CCCCC2)c1[N+](=O)[O-]
cell number change: -55.6% | AC50 [1]: 18.4 µM [falling, single point] | AC50 [2]: 29.1 µM [falling, single point]

CCOc1ccc(N(CC(=O)Nc2ccc(C)cc2)S(C)(=O)=O)cc1
cell number change: -6.82% | AC50 [2]: 6.51 µM [rising, single point]

Cc1ccc(CNc2cccnc2)cc1
cell number change: 22.6% | AC50 [2]: 8.2 µM [rising, partial curve]

COc1cccc(NC(=O)NCC2CCN(Cc3ccc(F)cc3)CC2)c1
cell number change: 31.2%

CCOC(=O)CSc1nc2cc3c(cc2cc1C#N)OCO3
cell number change: -13% | AC50 [2]: 1.84 µM [rising, partial curve]

COc1cccc(CN2CC(C(=O)N(C)CCc3ccccc3)CCC2=O)c1 (centres undefined)
AC50 [2]: 3.66 µM [rising, partial curve]

O=C(CSCSCC(=O)NCC1CCCO1)NCC1CCCO1 (centres undefined)
cell number change: 1.01% | AC50 [1]: 5.17 µM [rising, single point]

CN(C)c1nc(N)nc(-c2cccnc2)n1
cell number change: -23.7%

COc1cccc(C(=O)NN2CC(O)=C(c3nc4ccccc4s3)C2=N)c1
cell number change: -36.1%

CCOC(=O)c1c(C)[nH]c(C(=O)Nc2ccc(NC(C)=O)cc2)c1C
cell number change: 55.2% | AC50 [2]: 4.61 µM [rising, partial curve]

CC(=O)NCCn1c(SCc2ccc(C)cc2)nc2ccccc2c1=O
cell number change: -3.98%

Cc1ccccc1CNC1CCCCC1
AC50 [2]: 25.9 µM [falling, partial curve, poor fit]

CCN(CC)CCCN(C(=O)c1ccccc1C)c1nc(-c2ccc(OC)cc2)cs1
cell number change: 4.01% | AC50 [2]: 29.1 µM [rising, single point]

COc1ccccc1NS(=O)(=O)c1ccc(C(=O)N2CCN(c3ccccc3)CC2)cc1
cell number change: -22%

O=C(CSc1ccc2nnc(-c3ccccn3)n2n1)Nc1ccccc1
cell number change: 0.275%

Oc1c(C(Nc2cccc(C(F)(F)F)c2)c2ccncc2)ccc2cccnc12 (centres undefined)
cell number change: 22%

Cn1c(=O)c2c(ncn2CC(=O)Nc2ccccc2Sc2ccccc2)n(C)c1=O
cell number change: -1.68% | AC50 [2]: 2.91 µM [rising, partial curve]

COc1ccc(OC)c(NC(=O)C(CCS(C)(=O)=O)NC(C)=O)c1 (centres undefined)
cell number change: -9.2% | AC50 [2]: 25.9 µM [falling, partial curve]

CC(C)NC(=O)COc1cccc2ccccc12
cell number change: 14.5% | AC50 [1]: 0.103 µM [rising, full curve, poor fit] | AC50 [2]: 0.517 µM [rising, single point]

CCOC(=O)C1=C(COC(=O)/C=C/c2ccc(OC)cc2OC)NC(=O)NC1C (centres undefined)
AC50 [1]: 4.11 µM [falling, single point] | AC50 [2]: 4.61 µM [falling, full curve, poor fit]

CCc1ccc2c(CN3CCN(Cc4ccccc4)CC3)cc(=O)oc2c1
cell number change: 27.7% | AC50 [2]: 6.51 µM [rising, single point]

COc1cc(OC)cc(-c2nnc(SCC(=O)N3CCCC3)o2)c1
cell number change: 12% | AC50 [2]: 2.59 µM [rising, partial curve, poor fit]

COc1ccc2cc(C(C)C(=O)NC3CCC(O)CC3)ccc2c1 (centres undefined)
cell number change: 19.4% | AC50 [1]: 3.66 µM [rising, single point]

Cn1nnc(NC(=O)c2cccc([N+](=O)[O-])c2)n1
cell number change: -4.38%

CC(CNS(=O)(=O)c1cc(Cl)ccc1Cl)CN(C)C (centres undefined)
cell number change: -22.9% | AC50 [2]: 20.6 µM [falling, partial curve]

Cc1ccc(S(=O)(=O)N2CCOCC2)cc1NC(=O)C1CC(=O)N(c2ccc3c(c2)OCCO3)C1 (centres undefined)
AC50 [1]: 0.116 µM [falling, full curve, poor fit]

Cn1cc(/C(Cc2ccccc2)=N\O)c2ccccc21
cell number change: 42.2% | AC50 [1]: 1.84 µM [rising, full curve, poor fit] | AC50 [2]: 0.731 µM [rising, single point]

O=C(CN1CCN(c2ccccc2)CC1)N1N=CCC1c1ccccc1 (centres undefined)
cell number change: 17.2% | AC50 [2]: 20.6 µM [rising, single point]

Cc1cccc(C)c1NC(=O)Nc1cccs1
cell number change: 9.51% | AC50 [2]: 0.00517 µM [rising, full curve, poor fit]

CN(C)c1ccc(C(CNC(=O)c2ccco2)N2CCCC2)cc1 (centres undefined)
cell number change: 16.7% | AC50 [2]: 29.1 µM [rising, single point]

CCC1CCCCN1CCCNC(=O)C1CCN(Cc2nc(-c3ccc(Cl)cc3)oc2C)CC1 (centres undefined)
cell number change: -0.236% | AC50 [2]: 29.1 µM [rising, partial curve]

Cc1c(C(=O)N/N=C/c2ccc(Cl)cc2)[nH]c2ccc(Cl)cc12
cell number change: -48.6% | AC50 [1]: 25.9 µM [falling, partial curve, poor fit] | AC50 [2]: 25.9 µM [falling, partial curve]

O=c1c(O)c(-c2ccc(O)cc2O)oc2cc(O)cc(O)c12
cell number change: -32.4% | AC50 [1]: 23.1 µM [falling, single point] | AC50 [2]: 0.58 µM [rising, single point]

CCC(C)NC(=O)c1cc2c(=O)n3ccccc3nc2s1 (centres undefined)
cell number change: 8.33% | AC50 [2]: 29.1 µM [rising, single point]

CCCCN(C)C(=O)c1nc2ccccn2c1CN1CCN(c2cnccn2)CC1
cell number change: 16.4%

Nc1ccc(-c2nnc(-c3ccc(-c4ccccc4)cc3)o2)cc1
cell number change: -36.8% | AC50 [1]: 29.1 µM [falling, single point] | AC50 [2]: 0.116 µM [rising, single point]

CCn1c(SCC(=O)Nc2nnc(C)s2)nnc1C(C)NC(=O)c1ccccc1F (centres undefined)
AC50 [2]: 29.1 µM [rising, single point]

COc1ccc2[nH]c(C)c(CCN(Cc3cccs3)C(=S)Nc3ccccc3OC)c2c1
cell number change: 36.9% | AC50 [1]: 0.184 µM [rising, full curve, poor fit]

O=C1CC(N2CCN(C/C=C/c3ccccc3)CC2)C(=O)N1Cc1cccs1 (centres undefined)
cell number change: -74.3% | AC50 [1]: 20.6 µM [falling, partial curve] | AC50 [2]: 29.1 µM [falling, single point]

COc1cccc2c(=O)c(C/C=C(/C)Cl)c(C)[nH]c12
cell number change: -12% | AC50 [2]: 0.517 µM [falling, single point]

O=C(c1ccc2snnc2c1)N1CCN(c2ccccn2)CC1
cell number change: -31.6% | AC50 [1]: 0.517 µM [falling, full curve, poor fit] | AC50 [2]: 0.082 µM [falling, full curve, poor fit]

O=C(NS(=O)(=O)Oc1ccc(F)c(Cl)c1)OC[C@@H]1CCCN2CCCCC12 (some centres undefined)
cell number change: 10.6% | AC50 [2]: 3.66 µM [rising, partial curve, poor fit]

CC(OC(=O)c1cc(-c2cccnc2)nc2ccccc12)C(=O)Nc1ccc2ccccc2c1 (centres undefined)
cell number change: 31.6% | AC50 [1]: 2.31 µM [rising, full curve] | AC50 [2]: 0.231 µM [rising, full curve]

O=C(c1cn(Cc2ccccc2)nc1-c1cccnc1)N1CCc2ccccc2C1
cell number change: -6.12% | AC50 [1]: 0.103 µM [falling, partial curve, poor fit] | AC50 [2]: 20.6 µM [rising, partial curve, poor fit]

Cc1ccc(OCC(=O)NCc2cccs2)cc1
cell number change: -30.1% | AC50 [1]: 0.103 µM [falling, full curve] | AC50 [2]: 29.1 µM [falling, partial curve]

O=C(c1ccc(S(=O)(=O)N2CCOCC2)cc1)N1CCN(c2ccccc2F)CC1
AC50 [2]: 6.51 µM [falling, single point]

Cc1ccc(-c2[nH]c(=S)[nH]c(=O)c2C#N)cc1
cell number change: -21.2% | AC50 [1]: 6.51 µM [falling, single point] | AC50 [2]: 6.51 µM [falling, partial curve, poor fit]

CCOc1ccccc1N1CCN(C(=O)C(F)(F)F)CC1
cell number change: 15.9% | AC50 [2]: 18.4 µM [falling, partial curve]
